These are yes or no findings as the source states them, for the method shown. In cells and extracts the contact can be indirect. A yes stands for co-enrichment or nearness to the bait. Other partners may have been found. Where a sequence is shown, tags or fusion partners need not be part of it.
B1: DLGAP2 (protein, UniProt Q8BJ42 1-1059)
chain: MGTAQVLPGILQKHCCILPDRNTESQCTLCGEPEEEEGGDLAQPGLSFPGPAEEDIDQQYSWSPTQHFNEERYSPAPRNMKGLTGSRNQPQLCAGHTCGLSPPDDCEHPHDHMHHGSDVRQPYLLSPAESCPMDHHRCSPRSSVHSECMMMPVMLGDHVSSSTFPRMHYSSHYDTRDDCAMSHTSTKVNRIPANLLDQFEKQLPLHRDGFHTLQYQRASAATEQRNESPGRIRHLVHSVQKLFTKSHSLEGSSKSNINGTKSDSRVDDHHQSHLSKHSKRSKSKERKPESKHKSGMSSWWSSDDNLDSDSTYRTPSVAHRHHMDHIPHCYPEALQSPFGDLSLKTSKSNNDVKCSACEGLALTPDTRYMKRSSWSTLTVSQAKEAYRKSSLNLDKPLVHPEIKPSLRPCHYLQVPQDDWGAYPTGGKEEEIPCRRMRSGSYIKAMGDEESGESDSSPKTSPTVAIRPEPLLKPIIQRPLGDHQTQSYLQAATEVPVGHSLNPSINYNSPKFRSRNQSYMRAVSTLSQASCVSQMSEAEVNGQFESVCESVFSEVESQAMDALDLPGCFRTRSHSYLRAIQAGYSQDDECIPVMTSSNMTSTIRSTAAVSYTNYKKTPPPVPPRTTSKPLISVTAQSSTESTQDAYQDSRAQRMSPWPQDSRGGLYNSMDSLDSNKAMNLALETAAAQRHAADTQSSSTRSIDKAVLASKAEELLKSRCSSIGVQDSEFPDHQPYPRSDVETATDSDTESRGLREYHSVGVQVEDEKRHGRFKRSNSVTAAVQADLELEGFPGHVSMEDKGLQFGSSFQRHSEPSTPTQYGALRTVRTQGLFSYREDYRTQVDTSTLPPPDPWLEPSLDTVETGRMSPCRRDGSWFLKLLHTETKRMEGWCKEMEREAEENDLLEDILGKIRSAVGSAQLLMSQKFQQFYWLCQQNMDPSAMPRPTSQDLAGYWDMLQLSVEDVSMKFDELHQLKLNDWKIIESPERKEERKIPPPIPKKPPKGKFPITREKSLDLPDRQRQEARRRLMAAKRAASFRQNSATERADSIEIYIPEAQTRL
modifications: biotinylated by BioID2 in vivo
B2: BCR (protein, UniProt Q6PAJ1 1-1270)
chain: MVDSVGFAEAWRAQFPDSEPPRMELRSVGDIEQELERCKASIRRLEQEVNQERFRMIYLQTLLAKEKKSYDRQRWGFRRAAQPPDGAAEPRASAPRPPPAPADGADPAPVEESEARPDGEGSPSKGRSASARRPAAAASADRDDRGPPTSVAALRSNFEKIRKGPAQPGSADAEKPFYVNVEFHHERGLVKVNDKEVSDRISSLGSQAMQMERKKSQQSAGQGLGEAPRPHYRGRSSESSCGLDGDYEDAELNPRFLKDNLINANGGNRPPWPPLEYQPYQSIYVGGMMVEGEGKSPLLRSQSTSEQEKRLTWPRRSYSPRSFEDSGGGYTPDCSSNENLTSSEEDFSSGQSSRVSPSPTTYRMFRDKSRSPSQNSQQSFDSSSPPTPQCQKRHRQCQVVVSEATIVGVRKTGQIWPSDGDSTFQGEADSSFGTPPGYGCAADQAEEQRRHQDGLPYIDDSPSSSPHLSSKGRGSLASGALDPTKVSELDLEKGLEMRKWVLSGILASEETYLSHLEALLLPMKPLKAAATTSQPVLTSQQIETIFFKVPELYEIHKEFYDGLFPRVQQWSHQQRVGDLFQKLASQLGVYRAFVDNYGVAMETAEKCCQANAQFAEISENLRARSNKDVKDSTTKNSLETLLYKPVDRVTRSTLVLHDLLKHTPSSHPDHSLLQDALRISQNFLSSINEEITPRRQSMTVKKGEHRQLLKDSFMVELVEGARKLRHIFLFTDLLLCTKLKKQSGGKTQQYDCKWYIPLTDLSFQMVDELEALPNIPLVPDEELDALKIKISQIKSDIQREKRANKGSKVMERLRKKLSEQESLLLLMSPSMAFRVHSRNGKSYTFLISSDYERAEWRESIREQQKKCFKSFSLTSVELQMLTNSCVKLQTVHHIPLTINKEDDESPGLYGFLHVIVHSATGFKQSSNLYCTLEVDSFGYFVNKAKTRVYRDTTEPNWNEEFEIELEGSQTLRILCYEKCYNKMKMTKEDGESADKLMGKGQVQLDPQTLQDRDWQRTVIDMNGIEVKLSVKFTSREFSLKRMPSRKQTGVFGVKIAVVTKRERSKVPYIVRQCVEEIERRGMEEVGIYRVSGVATDIQALKAAFDVNNKDVSVMMSEMDVNAIAGTLKLYFRELPEPLFTDEFYPNFAEGIALSDPVAKESCMLNLLLSLPEANLLTFLFLLDHLKRVAEKETVNKMSLHNLATVFGPTLLRPSEKESKLPANPSQPITMTDSWSLEVMSQVQVLLYFLQLEAIPAPDSKRQSILFSTEV
modifications: biotinylated by BioID2 in vivo
B3: DLGAP3 (protein, UniProt Q6PFD5 1-977)
chain: MRGYHGDRGSHPRPARFADQQHMDVGPAARAPYLLGSREAFSTEPRFCAPRAGLGHLSPEGPLSLSEGPSSVGPEGGPGGVGAGGGSSTFPRMYPGQGPFDTCEDCVGHPQGKGATRLPPTLLDQFEKQLPVQQDGFHTLPYQRGPAGPGPGPGSGAAPEARSESPSRIRHLVHSVQKLFAKSHSLEAPGKRDYNGPKADGRGSSGGDSYSGPGSGGTPTSHHHHHHHHHHHHQSRHGKRSKSKDRKGDGRHQTKATGWWSSDDNLDSDSGFLGGRPPGEPGGPFCLDAPDGSYRDLSFKGRSGGSEGRCLACTGMSMSLDGQSVKRSAWHTMMVSQGRDGYPGAGPGKGLLGPETKAKARTYHYLQVPQDDWGGYPTGGKDGEIPCRRMRSGSYIKAMGDEESGDSDGSPKTSPKALARRFASRRSSSVDTARINCCVPPRIHPRSSIPGYSRSLTTGQLSEEFNQQLEAVCGSVFGELESQAVDALDLPGCFRMRSHSYLRAIQAGCSQDDDCLPLLAAPASVSGRPGSSFNFRKAPPPIPPGSQAPPRISITAQSSTDSAHESFTAAEGPARRCSSADGLDGPTMGARTLELAPVPPRASPKPPTLIIKTIPGREELRSLARQRKWRPSIGVQVETISDSDTENRSRREFHSIGVQVEEDKRRARFKRSNSVTAGVQADLELEGLAGLATVATEDKALQFGRSFQRHASEPQPGPRAPTYSVFRTVHTQGQWAYREGYPLPYEPPATDGSPGPTPVPAPGPGSGRRDSWMERGSRSLPDSGRTSPCPRDGEWFIKMLRAEVEKLEHWCQQMEREAEDYELPEEILEKIRSAVGSTQLLLSQKVQQFFRLCQQSLDPTAFPVPTFQDLAGFWDLLQLSIEDVTLKFLELQQLKANSWKLLEPKEEKKVPPPIPKKPSRGRGVPVKERSLDSVDRQRQEARKRLLAAKRAASFRHSSATESADSIEIYIPEAQTRL
modifications: biotinylated by BioID2 in vivo
B4: CLINT1 (protein, UniProt Q99KN9 1-631)
chain: MLIFMYLYVCVCTCTCAFSLCSTNVVMNYSEIESKVREATNDDPWGPSGQLMGEIAKATFMYEQFPELMNMLWSRMLKDNKKNWRRVYKSLLLLAYLIRNGSERVVTSAREHIYDLRSLENYHFVDEHGKDQGINIRQKVKELVEFAQDDDRLREERKKAKKNKDKYVGVSSDSVGGFRYNERYDPEPKSKWDEEWDKNKSAFPFSDKLGELSDKIGSTIDDTISKFRRKDREDSPERCSDSDEEKKARRGRSPKGEFKDEEETVTTKHIHITQATETTTTRHKRTANPSKTIDLGAAAHYTGDKASPDQNASTHTPQSSAKPSVPSSKSSGDLVDLFDGSSQSAGGSADLFGGFADFGSAAASGNFPSQATSGNGDFGDWSAFNQAPSGPVASGGELFGSAPQSAVELISASQPALGPPPAASNSADLFDLMGSSQATMTSSQSMNFSLMSTNTVGLGLPMSRSQNTDMVQKSASKTLPSTWSDPSVNISLDNLLPGMQPSKPQQPSLNTMIQQQNMQQPLNVMTQSFGAVNLSSPSNMLPVRPQTNPLLGGPMPMNMPGVMTGTMGMAPLGNSAGMSQGMVGMNMNMGMSASGMGLSGTMGMGMPSMAMPSGTVQPKQDAFANFANFSK
modifications: biotinylated by BioID2 in vivo
B5: GSTM1 (protein, UniProt P10649 1-218)
chain: MPMILGYWNVRGLTHPIRMLLEYTDSSYDEKRYTMGDAPDFDRSQWLNEKFKLGLDFPNLPYLIDGSHKITQSNAILRYLARKHHLDGETEEERIRADIVENQVMDTRMQLIMLCYNPDFEKQKPEFLKTIPEKMKLYSEFLGKRPWFAGDKVTYVDFLAYDILDQYRMFEPKCLDAFPNLRDFLARFEGLKKISAYMKSSRYIATPIFSKMAHWSNK
modifications: biotinylated by BioID2 in vivo

Chains of the proteins cited; added tags and fusions are not shown.
UniProt O54983: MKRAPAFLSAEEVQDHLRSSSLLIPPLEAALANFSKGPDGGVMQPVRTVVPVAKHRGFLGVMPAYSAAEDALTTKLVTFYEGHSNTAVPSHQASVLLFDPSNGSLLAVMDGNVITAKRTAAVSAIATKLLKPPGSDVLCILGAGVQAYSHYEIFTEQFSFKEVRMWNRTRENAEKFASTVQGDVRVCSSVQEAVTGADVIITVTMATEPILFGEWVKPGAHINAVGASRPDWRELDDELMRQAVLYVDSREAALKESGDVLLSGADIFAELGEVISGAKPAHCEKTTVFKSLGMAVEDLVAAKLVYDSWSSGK
UniProt P20357: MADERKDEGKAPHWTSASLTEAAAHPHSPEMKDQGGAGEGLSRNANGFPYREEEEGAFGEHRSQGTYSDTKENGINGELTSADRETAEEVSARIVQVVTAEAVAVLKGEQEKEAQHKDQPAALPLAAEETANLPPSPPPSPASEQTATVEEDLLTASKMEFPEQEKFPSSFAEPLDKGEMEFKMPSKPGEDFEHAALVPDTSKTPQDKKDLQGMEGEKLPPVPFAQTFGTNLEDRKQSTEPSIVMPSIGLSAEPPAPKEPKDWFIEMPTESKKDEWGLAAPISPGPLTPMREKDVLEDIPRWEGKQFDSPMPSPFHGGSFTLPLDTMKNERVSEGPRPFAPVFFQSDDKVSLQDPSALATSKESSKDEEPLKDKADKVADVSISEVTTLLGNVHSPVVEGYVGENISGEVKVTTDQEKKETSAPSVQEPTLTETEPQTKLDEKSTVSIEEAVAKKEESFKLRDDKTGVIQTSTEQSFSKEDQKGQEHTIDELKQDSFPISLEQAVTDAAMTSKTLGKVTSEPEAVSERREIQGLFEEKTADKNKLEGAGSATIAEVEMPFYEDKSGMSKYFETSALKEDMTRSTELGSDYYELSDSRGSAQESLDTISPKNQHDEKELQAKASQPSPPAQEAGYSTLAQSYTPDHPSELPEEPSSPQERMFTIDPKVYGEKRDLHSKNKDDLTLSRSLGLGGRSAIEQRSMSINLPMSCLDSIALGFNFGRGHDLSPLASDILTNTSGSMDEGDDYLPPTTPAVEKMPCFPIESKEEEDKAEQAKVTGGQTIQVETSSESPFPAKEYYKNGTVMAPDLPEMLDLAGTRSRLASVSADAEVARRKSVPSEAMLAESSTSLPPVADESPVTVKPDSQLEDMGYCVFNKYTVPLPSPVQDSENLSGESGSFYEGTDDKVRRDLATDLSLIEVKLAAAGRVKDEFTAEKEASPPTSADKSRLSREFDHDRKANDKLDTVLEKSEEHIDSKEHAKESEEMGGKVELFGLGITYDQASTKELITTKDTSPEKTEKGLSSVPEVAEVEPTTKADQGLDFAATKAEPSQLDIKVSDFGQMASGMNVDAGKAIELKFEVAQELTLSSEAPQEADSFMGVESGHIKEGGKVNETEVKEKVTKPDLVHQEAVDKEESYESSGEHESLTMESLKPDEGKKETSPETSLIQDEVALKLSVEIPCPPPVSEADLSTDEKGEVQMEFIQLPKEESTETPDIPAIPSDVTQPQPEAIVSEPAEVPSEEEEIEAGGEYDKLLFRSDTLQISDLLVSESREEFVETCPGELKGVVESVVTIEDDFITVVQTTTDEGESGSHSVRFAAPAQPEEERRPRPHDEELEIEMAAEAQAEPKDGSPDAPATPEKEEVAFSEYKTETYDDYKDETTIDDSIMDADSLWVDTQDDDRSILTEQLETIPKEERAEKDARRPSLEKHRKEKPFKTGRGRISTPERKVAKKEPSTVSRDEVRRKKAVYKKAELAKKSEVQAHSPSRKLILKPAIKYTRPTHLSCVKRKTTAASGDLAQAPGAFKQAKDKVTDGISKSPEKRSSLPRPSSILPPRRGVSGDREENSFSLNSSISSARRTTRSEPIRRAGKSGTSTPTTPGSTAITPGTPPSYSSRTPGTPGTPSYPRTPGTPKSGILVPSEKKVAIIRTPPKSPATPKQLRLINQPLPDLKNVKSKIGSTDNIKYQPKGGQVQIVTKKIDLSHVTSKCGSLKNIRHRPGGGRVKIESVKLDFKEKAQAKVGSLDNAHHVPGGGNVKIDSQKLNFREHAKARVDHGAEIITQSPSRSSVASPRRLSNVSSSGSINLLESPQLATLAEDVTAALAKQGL
UniProt P70398: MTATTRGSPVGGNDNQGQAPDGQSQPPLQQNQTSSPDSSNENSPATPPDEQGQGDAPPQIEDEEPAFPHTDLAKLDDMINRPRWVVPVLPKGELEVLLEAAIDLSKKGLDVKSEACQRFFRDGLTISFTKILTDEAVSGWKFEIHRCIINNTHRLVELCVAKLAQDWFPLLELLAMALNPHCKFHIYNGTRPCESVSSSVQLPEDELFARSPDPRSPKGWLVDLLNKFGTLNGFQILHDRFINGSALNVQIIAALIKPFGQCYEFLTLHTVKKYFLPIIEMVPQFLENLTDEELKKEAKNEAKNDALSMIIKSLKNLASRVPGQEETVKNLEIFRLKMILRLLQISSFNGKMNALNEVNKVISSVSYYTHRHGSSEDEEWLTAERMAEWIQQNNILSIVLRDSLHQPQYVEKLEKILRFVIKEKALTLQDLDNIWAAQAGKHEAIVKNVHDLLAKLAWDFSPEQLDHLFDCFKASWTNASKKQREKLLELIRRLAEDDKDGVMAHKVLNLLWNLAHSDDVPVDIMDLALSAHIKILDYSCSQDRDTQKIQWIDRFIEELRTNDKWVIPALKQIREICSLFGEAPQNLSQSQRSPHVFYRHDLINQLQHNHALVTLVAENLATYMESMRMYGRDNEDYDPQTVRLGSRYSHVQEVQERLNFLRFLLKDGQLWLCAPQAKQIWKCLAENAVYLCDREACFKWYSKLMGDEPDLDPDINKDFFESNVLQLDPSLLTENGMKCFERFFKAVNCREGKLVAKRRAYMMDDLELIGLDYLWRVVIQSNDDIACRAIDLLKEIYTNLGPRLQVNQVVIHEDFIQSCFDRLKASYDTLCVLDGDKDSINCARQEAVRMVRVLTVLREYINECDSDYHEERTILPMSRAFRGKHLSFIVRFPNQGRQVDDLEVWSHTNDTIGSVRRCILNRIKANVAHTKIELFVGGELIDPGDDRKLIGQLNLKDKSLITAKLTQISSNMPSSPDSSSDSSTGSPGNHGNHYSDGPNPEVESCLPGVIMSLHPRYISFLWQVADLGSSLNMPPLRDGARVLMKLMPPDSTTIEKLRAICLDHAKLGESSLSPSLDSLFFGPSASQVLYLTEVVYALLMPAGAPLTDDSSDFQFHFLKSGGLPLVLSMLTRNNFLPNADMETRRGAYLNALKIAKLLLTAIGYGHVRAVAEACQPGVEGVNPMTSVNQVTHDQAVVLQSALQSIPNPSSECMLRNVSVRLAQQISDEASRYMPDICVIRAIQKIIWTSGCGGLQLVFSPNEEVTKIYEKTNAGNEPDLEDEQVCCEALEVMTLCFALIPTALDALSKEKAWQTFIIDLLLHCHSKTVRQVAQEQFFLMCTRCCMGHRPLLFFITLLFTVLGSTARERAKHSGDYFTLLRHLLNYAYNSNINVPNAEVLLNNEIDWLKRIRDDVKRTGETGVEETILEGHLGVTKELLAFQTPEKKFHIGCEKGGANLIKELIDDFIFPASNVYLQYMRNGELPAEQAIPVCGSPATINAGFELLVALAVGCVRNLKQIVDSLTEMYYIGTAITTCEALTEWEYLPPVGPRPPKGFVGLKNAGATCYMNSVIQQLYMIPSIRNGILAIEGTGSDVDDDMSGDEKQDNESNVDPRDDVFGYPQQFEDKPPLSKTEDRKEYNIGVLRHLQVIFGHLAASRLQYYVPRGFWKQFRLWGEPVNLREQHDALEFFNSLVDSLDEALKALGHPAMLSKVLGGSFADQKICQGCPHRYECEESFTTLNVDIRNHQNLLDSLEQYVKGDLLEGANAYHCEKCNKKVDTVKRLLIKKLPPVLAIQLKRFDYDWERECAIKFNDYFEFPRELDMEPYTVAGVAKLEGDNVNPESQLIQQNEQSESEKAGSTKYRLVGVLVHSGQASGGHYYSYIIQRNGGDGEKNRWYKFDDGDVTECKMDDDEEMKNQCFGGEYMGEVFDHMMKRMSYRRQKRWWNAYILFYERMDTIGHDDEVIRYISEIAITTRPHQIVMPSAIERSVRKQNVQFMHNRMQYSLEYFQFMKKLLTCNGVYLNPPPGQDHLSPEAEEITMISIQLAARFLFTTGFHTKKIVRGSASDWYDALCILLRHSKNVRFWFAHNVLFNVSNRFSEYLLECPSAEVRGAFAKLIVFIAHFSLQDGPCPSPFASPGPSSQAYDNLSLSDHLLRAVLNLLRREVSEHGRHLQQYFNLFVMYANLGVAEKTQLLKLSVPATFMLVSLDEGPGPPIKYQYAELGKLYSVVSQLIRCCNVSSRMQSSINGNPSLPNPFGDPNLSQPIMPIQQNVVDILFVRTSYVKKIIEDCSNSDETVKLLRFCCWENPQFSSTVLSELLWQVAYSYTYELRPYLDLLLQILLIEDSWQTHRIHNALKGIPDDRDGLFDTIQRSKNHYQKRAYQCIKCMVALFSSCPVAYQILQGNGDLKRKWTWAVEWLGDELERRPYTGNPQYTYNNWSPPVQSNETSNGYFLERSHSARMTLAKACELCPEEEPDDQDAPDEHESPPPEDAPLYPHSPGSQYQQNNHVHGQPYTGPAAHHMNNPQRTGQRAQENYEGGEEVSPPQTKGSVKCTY

biological target: μ-crystallin–BioID2 (mouse) (UniProt O54983); assay: proximity labelling; in vivo BioID2: AAV Crym-BioID2 in striatal astrocytes of mice, biotin 24 mg per kg subcutaneously for seven days; biotinylated proteins of the striatum lysate purified on NeutrAvidin agarose, LC-MS/MS; against the Crym-GFP control (log2FC > 1 and FDR < 0.05; SAINTexpress FDR cut-off 0.05); proximal proteins within ~10 nm are biotinylated

binding, binds:
MAP2 (from UniProt P20357 1-1828)
MT-ND5 (from UniProt P03921 1-607)
SYNGAP1 (from UniProt F6SEU4 1-1340)
USP9X (from UniProt P70398 1-2559)
B1
B2
B3
B4
B5
